About 210 (0.4%) of roughly 52,000 sequences were called active.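 The calls were made as follows: active = gene whose silencing raises cell survival under the drug, median off-target-corrected z-score across its silencing RNAs 2 or more; inactive = the rest.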 The list shows a part of the results.
experiment: Resistance to Poly (ADP-Ribose) Polymerase inhibitor: Gene Identification via Genome-wide siRNA Screen; settings: mouse BRCA2 R2336H ES cells, olaparib, CellTiter-Glo viability; stronger effect = higher value
Method in brief: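 Mouse BRCA2 R2336H ES cells were reverse-transfected with siRNA (20 nM final), treated at 48 h with 500 nM olaparib, and read by CellTiter-Glo after 72 h. Scores: MAD-based z per siRNA, median per gene, seed off-target correction.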

| Sequence | z-score |
| --- | --- |
| GGUCAAAAACUUGACUCGUTT against BC020354 | inactive: -1.52 |
| GGAUCUCGUGGGCUACAUUTT against 1300013J15Rik | inactive: -2.34 |
| GCUGAUGGCACUAAACACUTT against BC038479 | inactive: 0.125 |
| GGAUUACACACCUACGAUCTT against Taf10 | inactive: 1.4 |
| GGAGACUUCAGUGCCUCUUTT against Slc16a11 | inactive: -1.36 |
| GGUUCCAUGAGAAAAGGUUTT against F2r | inactive: -0.549 |
| GGCCGAUUGUGAUGAAUUCTT against Depdc1b | inactive: -0.19 |
| GGGCCAAACCCAGAACUAUTT against Sema4g | inactive: -0.77 |
| GGUGAAGAGGAAGAUCCUGTT against Dullard | inactive: 1.48 |
| GGGUGCCGUGGUCAUUUUATT against Ccnd3 | inactive: -1.18 |
| GGCCUUCUAUACUACAGACTT against Hdac1 | inactive: 0.26 |
| GGCUAACUUUGACACGAACTT against Cyfip2 | inactive: -0.309 |
| GCAUGUCCAAAGUGGUACCTT against Srd5a2l2 | inactive: 1.05 |
| GGAAUUUCUUCAGGACACUTT against Procr | inactive: 0.479 |
| GGAGUUUGAUCUGCUUCGGTT against Kctd6 | inactive: 0.442 |
| GGUGAUAUUGCCUAGGUACTT against Fmod | inactive: 0.475 |
| CCGUAUGAUUGUCCAAGAGTT against Nckipsd | inactive: 0.477 |
| GGACCUCUUGUAUUUAUAATT against 6030463G20Rik | inactive: -0.711 |
| GCGUGUUCACUUGUGUGGUTT against C330006K01Rik | inactive: 0.0937 |
| GAUGGUCACCCUGCUGAUUTT against Cklfsf7 | inactive: 1.73 |
| GGACCGUGUCUCUGGAAAATT against 2310016C16Rik | inactive: -0.309 |
| GGAAGCUGAUGGCUAUGACTT against Arc | inactive: -1.62 |
| GGUGAUUAUCGAGAUGAUCTT against Dpagt1 | inactive: 1.16 |
| GGAGAAACCUGUGUGCAGATT against Tulp4 | inactive: 0.613 |
| GCUACAAUAUGACAAGUGUTT against Adamts5 | active: 2.82 |
| GCUUGUAUUGCUUGUCUUUTT against Olfr172 | inactive: 0.463 |
| GGUGGACACAGCUUAAAGCTT against V1rf3 | inactive: -0.815 |

| Sequence | z-score |
| --- | --- |
| GGAAAGAAUGUUUUGUUUCTT against Phex | inactive: 0.215 |
| CGAUUACAGCCUUUGUAGATT against Atp2a2 | inactive: -0.805 |
| CCACACUUGCUGAAUACAGTT against 2810410L24Rik | inactive: 0.945 |
| GGUACUGAAUAGGACAAAGTT against Stra8 | inactive: -0.703 |
| GCGGCUCCAAAAUUGUGCUTT against Ipo13 | inactive: -0.703 |
| GGAAUACAGUCUUUAUAUGTT against Slco4c1 | inactive: 0.443 |
| GGUGCUGAGCAUGGUGUUATT against Spag4 | inactive: -0.904 |
| GCUAAGUGUAGAAAACAGGTT against Shox2 | inactive: 0.164 |
| GGCAUAUCAACUUUCUCGATT against p | inactive: 1.09 |
| GGACUCCACUUUUGAAAACTT against 1810020G14Rik | inactive: 0.707 |
| GCCUCUUGCCUGAUUACCUTT against Mja1l | inactive: 0.0856 |
| UCGCAUGCUCAUUGGCAUGTT against MGC62475 | inactive: 0.239 |
| CCCAUGGGCAGAUGAAAGCTT against Olfr1441 | inactive: 0.594 |
| CGAGAACAGAGGUUUUUAATT against Mxi1 | inactive: -0.947 |
| CCAAAAUGAACAUCAACUCTT against A030013D21 | inactive: 0.832 |
| GGCAUCCGUGUGUCUCUAGTT against 5730457F11Rik | active: -2.13 |
| GGUUGUGAAACGAUGCCCUTT against Trp63 | inactive: 0.559 |
| GGCUCGGAAAGAAAAGAACTT against Sh2bp1 | inactive: -1.95 |
| GGCAGUGAAGAGAAGAAGUTT against Trub2 | inactive: -1.55 |
| GGCUUUUACCGCCAAGACGTT against Snx11 | inactive: 0.931 |
| GGAGAGAGAGAAGAAGGAUTT against 2610510D14Rik | inactive: -1.13 |
| GGCGGAUGAACAAAGUUGGTT against Paf53 | inactive: -1.29 |
| GCGGGAGUACUACGUCAAUTT against Reps2 | inactive: -1.12 |
| GGAGAUUAUCAGGGAAGAGTT against Pvrl3 | inactive: 0.238 |
| GGGCUUUGUUUCCAAGUUGTT against D730046L02Rik | inactive: -0.678 |
| GGACAAGCUGAAGACGCACTT against Zfp64 | inactive: -1.13 |
| GGACAGCUACAUAAGCUUUTT against Il17d | inactive: 0.792 |

| Sequence | z-score |
| --- | --- |
| GGUUCUUGUUCAUUCUCUUTT against Slc4a4 | inactive: 1.88 |
| GCAACUGGCAGUCGCCUAUTT against BC027344 | inactive: -0.84 |
| GGUCUUCGAAACACAGCUGTT against 4933417E01Rik | inactive: 0.0819 |
| GGACUACCUAUGGUUAAAATT against Nup93 | inactive: 0.0164 |
| CCCAUAUCUUAAUCAAAAGTT against Akr1e1 | inactive: -0.489 |
| GGUGGAUCCCAACUGUUUCTT against Akap10 | inactive: 0.373 |
| GGUCUUUGACAGAAUAAAATT against C030002N13Rik | inactive: 0.706 |
| GGUGAUGAAGAGGUUCCCUTT against Fzd4 | inactive: 0.344 |
| GGAGAGUAUACCUGUCUGGTT against Fgfr4 | inactive: 0.0349 |
| GGAGAAAACGUGAUGAGGATT against A330064G03Rik | inactive: -1.42 |
| GGAAGAUGUAUUCUUCUCCTT against Gemin4 | inactive: -0.865 |
| GGGAUUCAAACAGGUCUUGTT against Ahsg | inactive: -0.981 |
| GGUUAUGAAACUGAGAAAGTT against Mid2 | inactive: 0.157 |
| AAUGCUAUUAUACCAACUGTT against V1rh5 | inactive: 0.612 |
| GGAUGACCAAAAGGACAAUTT against Galp | inactive: -1.46 |
| GGUGCUGAGGCUGAUUCUCTT against Solh | inactive: 0.973 |
| GGGAUCAGACUGUAUAGACTT against Chchd4 | inactive: 0.242 |
| GGACUUGCUAAGAGACCAATT against Cntn2 | inactive: 0.885 |
| GGAAGAAGCCUUUUGAGUGTT against Peg3 | inactive: 0.57 |
| CCAGAGAAAUAUCGACAAGTT against Rasgrf1 | inactive: 1.33 |
| GGCACCUGAGGGAACUAAGTT against Atp1a2 | inactive: -0.322 |
| GCGUAUACCAUGCAGAUAUTT against Oprs1 | inactive: -1.42 |
| GGUGAUUUCUAUCGAUUUUTT against Dhrs9 | inactive: 1.02 |
| CCUUGACAGGACUAUAUUUTT against Pter | inactive: -0.773 |
| GGCUGAACAGGCAUGAUCATT against Rpap1 | inactive: -1.77 |
| GAAAUUCUUCCAGUGGAAGTT against 2310006J04Rik | inactive: 1.91 |
| GGAGCAGAAUGGAGUGCAGTT against Slc6a3 | inactive: 0.611 |

| Sequence | z-score |
| --- | --- |
| GGAGGUUUCCUUAGGCAAATT against Drd5 | inactive: 2.11 |
| GGAGCACUUGUGGAUCAAUTT against Efhd1 | inactive: 2.04 |
| GGGUUAGGAUACCUCGACUTT against Arnt2 | inactive: -0.0242 |
| GCCAAUAAUCCACAGGCAATT against Ryk | inactive: -1.24 |
| GGGCUCGUUAAUCUUUUACTT against Nola3 | inactive: 0.375 |
| GGAGGUGUCGGGAUAUCAATT against Ptprm | inactive: 0.421 |
| GGCUCCUCAAAGGUCAAGUTT against Mybpc3 | inactive: 1.08 |
| CCACAUGAUCCUAACUUUGTT against Pqbp1 | inactive: 0.119 |
| GCUCAAUCAAAAAGAUCCUTT against 2610039E05Rik | inactive: -0.522 |
| GGGAUCAAAUUACACCUGUTT against Phox2a | inactive: 1.06 |
| GCCGAUCUAAGAAAAACAATT against Tro | inactive: -0.259 |
| GCCCUGAUGCAAGCUUGUGTT against C030038J10Rik | inactive: -0.681 |
| GCUAUUGAGUUAUCGUUGCTT against Stam2 | inactive: 0.98 |
| GGAGGUGCAUUAUAAGAAUTT against Fhl1 | inactive: 0.0909 |
| CGAAGACGGUGACUACUAUTT against Bicd2 | inactive: -1.41 |
| GGCUAUGAAUAAACUUUUCTT against Olfr1016 | inactive: 1.23 |
| GGUGUCCAUGCUAGCUGUATT against Vmd2l1 | inactive: -2.12 |
| CUACUUCACUUGCAUAACUTT against Dnajc2 | inactive: -0.149 |
| GAAAGUGUUCAAUAUACUGTT against Klra10 | inactive: -0.127 |
| GGGAAUUUCCUGAAAUCCUTT against BC004636 | inactive: 0.94 |
| GCUCUCCUUGAUCGAGAGATT against 6330409N04Rik | inactive: -0.659 |
| GGUAGAUGAUGAAAAACAATT against 1700013E18Rik | inactive: -0.106 |
| GCCCGGAAUCUGUCUAAACTT against Btg2 | inactive: -1.43 |
| GGCAUGAAAGCACAAAUGGTT against 0610037L13Rik | inactive: -0.00427 |

Quoted at random: four records from the list, in no set order.

| Sequence | z-score |
| --- | --- |
| GGAGACUUCAGUGCCUCUUTT against Slc16a11 | inactive: -1.36 |
| GGCUCGGAAAGAAAAGAACTT against Sh2bp1 | inactive: -1.95 |
| GGUGGAUCCCAACUGUUUCTT against Akap10 | inactive: 0.373 |
| GCAUGUCCAAAGUGGUACCTT against Srd5a2l2 | inactive: 1.05 |
